{"sequences": {"note": "Sequences of proteins named here, by UniProt entry; tags and fusion partners are left off. Residues count along the entry.", "UniProt P27824, residues 21-592": "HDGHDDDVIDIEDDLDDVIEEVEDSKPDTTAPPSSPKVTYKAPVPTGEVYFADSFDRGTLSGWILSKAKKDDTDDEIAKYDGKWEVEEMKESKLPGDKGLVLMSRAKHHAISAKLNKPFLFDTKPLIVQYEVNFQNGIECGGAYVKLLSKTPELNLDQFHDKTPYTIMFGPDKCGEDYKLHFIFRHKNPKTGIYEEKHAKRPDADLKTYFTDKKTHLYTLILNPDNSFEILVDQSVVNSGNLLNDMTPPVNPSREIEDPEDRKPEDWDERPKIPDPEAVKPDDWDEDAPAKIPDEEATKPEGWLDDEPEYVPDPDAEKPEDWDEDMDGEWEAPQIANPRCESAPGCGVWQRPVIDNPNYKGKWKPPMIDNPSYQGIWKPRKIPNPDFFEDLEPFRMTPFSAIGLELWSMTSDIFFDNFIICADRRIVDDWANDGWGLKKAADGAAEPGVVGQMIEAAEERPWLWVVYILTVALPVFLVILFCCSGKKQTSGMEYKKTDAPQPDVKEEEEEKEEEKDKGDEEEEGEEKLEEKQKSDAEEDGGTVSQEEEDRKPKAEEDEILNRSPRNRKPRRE"}, "source": "paper PMC4652285", "biological_target": "T1, Recombinant mouse Gpnmb lacking signal peptide tagged with 3xFLAG peptides (mouse) (UniProt Q99P91)", "T1 sequence": "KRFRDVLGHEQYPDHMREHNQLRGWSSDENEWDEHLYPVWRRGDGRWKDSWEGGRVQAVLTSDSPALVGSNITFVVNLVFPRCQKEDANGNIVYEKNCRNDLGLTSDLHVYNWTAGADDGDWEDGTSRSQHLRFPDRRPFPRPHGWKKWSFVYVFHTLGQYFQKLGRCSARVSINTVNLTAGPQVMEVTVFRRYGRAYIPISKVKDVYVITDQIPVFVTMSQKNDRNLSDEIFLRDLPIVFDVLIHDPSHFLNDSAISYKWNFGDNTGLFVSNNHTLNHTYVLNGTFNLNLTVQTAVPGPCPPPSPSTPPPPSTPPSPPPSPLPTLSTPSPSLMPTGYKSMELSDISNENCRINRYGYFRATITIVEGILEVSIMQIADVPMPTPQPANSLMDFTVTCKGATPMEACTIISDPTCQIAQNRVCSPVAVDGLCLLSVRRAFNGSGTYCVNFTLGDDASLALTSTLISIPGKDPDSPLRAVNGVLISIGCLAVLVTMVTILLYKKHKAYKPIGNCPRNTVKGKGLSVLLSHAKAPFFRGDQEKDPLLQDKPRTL", "assay": "affinity purification with mass spectrometry; LI90 cells transfected with p3xFLAG-mGpnmb or control vector; soluble proteins purified on ANTI-FLAG M2 affinity resin, SDS-PAGE, silver stain, visible bands in-gel digested with trypsin, LC-MS/MS", "note": "No constants are given. Whether binding was seen depends on the method and setting. Binding seen in cells or lysates may run through a third protein. These calls come from enrichment with a bait or labelling near it, and not all partners need be listed. Where a sequence is shown, tags or fusion partners need not be part of it."}
{"substance": "calnexin (from UniProt P27824 21-592)", "values": [{"measurement": "binding", "result": "binds"}]}
